# Assay results published in paper PMC7956269.
# Biological target: Biotin-FOXC1 (mouse) (UniProt Q61572)
# Experiment: affinity purification with mass spectrometry; streptavidin-agarose precipitation of biotinylated FOXC1 from nuclear extract of stable HEK293T cells (293T-Biotin-FOXC1); IP350 buffer (350 mM NaCl, 20 mM Tris-HCl pH 7.5, 0.5% NP40, 1 mM EDTA, 10% glycerin); SDS-PAGE, LC-ESI-MS/MS; proteins of the 293T-Biotin control deducted
row,binding,Binder
1,binds,"Timmdc1 (protein, UniProt Q9NPL8 1-285) MEVPPPAPRSFLCRALCLFPRVFAAEAVTADSEVLEERQKRLPYVPEPYYPESGWDRLRELFGKDEQQRISKDLANICKTAATAGIIGWVYGGIPAFIHAKQQYIEQSQAEIYHNRFDAVQSAHRAATRGFIRYGWRWGWRTAVFVTIFNTVNTSLNVYRNKDALSHFVIAGAVTGSLFRINVGLRGLVAGGIIGALLGTPVGGLLMAFQKYSGETVQERKQKDRKALHELKLEEWKGRLQVTEHLPEKIESSLQEDEPENDAKKIEALLNLPRNPSVIDKQDKD"
2,binds,"Sart1 (protein, UniProt O43290 1-800) MGSSKKHRGEKEAAGTTAAAGTGGATEQPPRHREHKKHKHRSGGSGGSGGERRKRSRERGGERGSGRRGAEAEARSSTHGRERSQAEPSERRVKREKRDDGYEAAASSKTSSGDASSLSIEETNKLRAKLGLKPLEVNAIKKEAGTKEEPVTADVINPMALRQREELREKLAAAKEKRLLNQKLGKIKTLGEDDPWLDDTAAWIERSRQLQKEKDLAEKRAKLLEEMDQEFGVSTLVEEEFGQRRQDLYSARDLQGLTVEHAIDSFREGETMILTLKDKGVLQEEEDVLVNVNLVDKERAEKNVELRKKKPDYLPYAEDESVDDLAQQKPRSILSKYDEELEGERPHSFRLEQGGTADGLRERELEEIRAKLRLQAQSLSTVGPRLASEYLTPEEMVTFKKTKRRVKKIRKKEKEVVVRADDLLPLGDQTQDGDFGSRLRGRGRRRVSEVEEEKEPVPQPLPSDDTRVENMDISDEEEGGAPPPGSPQVLEEDEAELELQKQLEKGRRLRQLQQLQQLRDSGEKVVEIVKKLESRQRGWEEDEDPERKGAIVFNATSEFCRTLGEIPTYGLAGNREEQEELMDFERDEERSANGGSESDGEENIGWSTVNLDEEKQQQDFSASSTTILDEEPIVNRGLAAALLLCQNKGLLETTVQKVARVKAPNKSLPSAVYCIEDKMAIDDKYSRREEYRGFTQDFKEKDGYKPDVKIEYVDETGRKLTPKEAFRQLSHRFHGKGSGKMKTERRMKKLDEEALLKKMSSSDTPLGTVALLQEKQKAQKTPYIVLSGSGKSMNANTITK"
3,binds,"Mybbp1a (protein, UniProt Q9BQG0 1-1328) MESRDPAQPMSPGEATQSGARPADRYGLLKHSREFLDFFWDIAKPEQETRLAATEKLLEYLRGRPKGSEMKYALKRLITGLGVGRETARPCYSLALAQLLQSFEDLPLCSILQQIQEKYDLHQVKKAMLRPALFANLFGVLALFQSGRLVKDQEALMKSVKLLQALAQYQNHLQEQPRKALVDILSEVSKATLQEILPEVLKADLNIILSSPEQLELFLLAQQKVPSKLKKLVGSVNLFSDENVPRLVNVLKMAASSVKKDRKLPAIALDLLRLALKEDKFPRFWKEVVEQGLLKMQFWPASYLCFRLLGAALPLLTKEQLHLVMQGDVIRHYGEHVCTAKLPKQFKFAPEMDDYVGTFLEGCQDDPERQLAVLVAFSSVTNQGLPVTPTFWRVVRFLSPPALQGYVAWLRAMFLQPDLDSLVDFSTNNQKKAQDSSLHMPERAVFRLRKWIIFRLVSIVDSLHLEMEEALTEQVARFCLFHSFFVTKKPTSQIPETKHPFSFPLENQAREAVSSAFFSLLQTLSTQFKQAPGQTQGGQPWTYHLVQFADLLLNHSHNVTTVTPFTAQQRQAWDRMLQTLKELEAHSAEARAAAFQHLLLLVGIHLLKSPAESCDLLGDIQTCIRKSLGEKPRRSRTKTIDPQEPPWVEVLVEILLALLAQPSHLMRQVARSVFGHICSHLTPRALQLILDVLNPETSEDENDRVVVTDDSDERRLKGAEDKSEEGEDNRSSESEEESEGEESEEEERDGDVDQGFREQLMTVLQAGKALGGEDSENEEELGDEAMMALDQSLASLFAEQKLRIQARRDEKNKLQKEKALRRDFQIRVLDLVEVLVTKQPENALVLELLEPLLSIIRRSLRSSSSKQEQDLLHKTARIFTHHLCRARRYCHDLGERAGALHAQVERLVQQAGRQPDSPTALYHFNASLYLLRVLKGNTAEGCVHETQEKQKAGTDPSHMPTGPQAASCLDLNLVTRVYSTALSSFLTKRNSPLTVPMFLSLFSRHPVLCQSLLPILVQHITGPVRPRHQACLLLQKTLSMREVRSCFEDPEWKQLMGQVLAKVTENLRVLGEAQTKAQHQQALSSLELLNVLFRTCKHEKLTLDLTVLLGVLQGQQQSLQQGAHSTGSSRLHDLYWQAMKTLGVQRPKLEKKDAKEIPSATQSPISKKRKKKGFLPETKKRKKRKSEDGTPAEDGTPAATGGSQPPSMGRKKRNRTKAKVPAQANGTPTTKSPAPGAPTRSPSTPAKSPKLQKKNQKPSQVNGAPGSPTEPAGQKQHQKALPKKGVLGKSPLSALARKKARLSLVIRSPSLLQSGAKKKAQVRKAGKP"
4,binds,"Hmgxb4 (protein, UniProt Q9UGU5 1-601) MAYDDSVKKEDCFDGDHTFEDIGLAAGRSQREKKRSYKDFLREEEEIAAQVRNSSKKKLKDSELYFLGTDTHKKKRKHSSDDYYYGDISSLESSQKKKKKSSPQSTDTAMDLLKAITSPLAAGSKPSKKTGEKSSGSSSHSESKKEHHRKKVSGSSGELPLEDGGSHKSKKMKPLYVNTETLTLREPDGLKMKLILSPKEKGSSSVDEESFQYPSQQATVKKSSKKSARDEQGALLLGHELQSFLKTARKKHKSSSDAHSSPGPEGCGSDASQFAESHSANLDLSGLEPILVESDSSSGGELEAGELVIDDSYREIKKKKKSKKSKKKKDKEKHKEKRHSKSKRSLGLSAVPVGEVTVTSGPPPSIPYAGAAAPPLPLPGLHTDGHSEKKKKKEEKDKERERGEKPKKKNMSAYQVFCKEYRVTIVADHPGIDFGELSKKLAEVWKQLPEKDKLIWKQKAQYLQHKQNKAEATTVKRKASSSEGSMKVKASSVGVLSPQKKSPPTTMLLPASPAKAPETEPIDVAAHLQLLGESLSLIGHRLQETEGMVAVSGSLSVLLDSIICALGPLACLTTQLPELNGCPKQVLSNTLDNIAYIMPGL"
5,binds,"Gnl3 (protein, UniProt Q9BVP2 1-549) MKRPKLKKASKRMTCHKRYKIQKKVREHHRKLRKEAKKRGHKKPRKDPGVPNSAPFKEALLREAELRKQRLEELKQQQKLDRQKELEKKRKLETNPDIKPSNVEPMEKEFGLCKTENKAKSGKQNSKKLYCQELKKVIEASDVVLEVLDARDPLGCRCPQVEEAIVQSGQKKLVLILNKSDLVPKENLESWLNYLKKELPTVVFRASTKPKDKGKITKRVKAKKNAAPFRSEVCFGKEGLWKLLGGFQETCSKAIRVGVIGFPNVGKSSIINSLKQEQMCNVGVSMGLTRSMQVVPLDKQITIIDSPSFIVSPLNSSSALALRSPASIEVVKPMEAASAILSQADARQVVLKYTVPGYRNSLEFFTVLAQRRGMHQKGGIPNVEGAAKLLWSEWTGASLAYYCHPPTSWTPPPYFNESIVVDMKSGFNLEELEKNNAQSIRAIKGPHLANSILFQSSGLTNGIIEEKDIHEELPKRKERKQEEREDDKDSDQETVDEEVDENSSGMFAAEETGEALSEETTAGEQSTRSFILDKIIEEDDAYDFSTDYV"
6,binds,"Ptplad1 (protein, UniProt Q9P035 1-362) MENQVLTPHVYWAQRHRELYLRVELSDVQNPAISITENVLHFKAQGHGAKGDNVYEFHLEFLDLVKPEPVYKLTQRQVNITVQKKVSQWWERLTKQEKRPLFLAPDFDRWLDESDAEMELRAKEEERLNKLRLESEGSPETLTNLRKGYLFMYNLVQFLGFSWIFVNLTVRFCILGKESFYDTFHTVADMMYFCQMLAVVETINAAIGVTTSPVLPSLIQLLGRNFILFIIFGTMEEMQNKAVVFFVFYLWSAIEIFRYSFYMLTCIDMDWKVLTWLRYTLWIPLYPLGCLAEAVSVIQSIPIFNETGRFSFTLPYPVKIKVRFSFFLQIYLIMIFLGLYINFRHLYKQRRRRYGQKKKKIH"

# Results are given in words; binding and its absence hold for the method and conditions named. In cells and extracts the contact can be indirect. Here binding means that the protein was enriched with, or labelled near, the bait; the list need not be complete.
